Assay results published in patent US20220025331A1, “METHODS AND SYSTEMS FOR IMPROVING CELLS FOR USE IN THERAPY” (priority 2017, published 2022).

Test system: P3 foAC neocartilage
Assay: Phase 2: cytochalasin D and hyaluronidase treatment of P3 (passaged, not redifferentiated) neocartilage
Assay type: cell-based, sheep
Conditions: without aggregate redifferentiation
Protocol: Chondrocyte Isolation: Fetal ovine articular chondrocytes (foACs) were harvested from the patellofemoral surfaces of 120-day gestation Dorper cross sheep obtained as medical waste (UC Davis School of Veterinary Medicine). Cartilage from the whole surface of both condyles and the trochlear groove was minced into approximately 1 mm^3 pieces, then washed and centrifuged (500 G for 5 minutes) three times with Dulbecco's Modified Eagle Medium containing 4.5 g/L glucose and GlutaMAX (DMEM; Gibco) and 2% (v/v) penicillin/streptomycin/fungizone (PSF; Lonza). The tissue was digested in 0.2% (w/v) collagenase type II (Worthington) in DMEM containing 3% (v/v) fetal bovine serum (FBS; Atlanta Biologicals) for 18 hours at 37° C. with gentle rocking. […]
Chondrocyte Expansion and Redifferentiation: Previously frozen P0 foACs were seeded in T-225 flasks at 1.5×10^4 cells/cm^2 and expanded in chemically defined chondrogenic medium (CHG medium) (DMEM containing 1% PSF, 1% ITS+ premix (BD Biosciences), 1% non-essential amino acids (Gibco), 100 nM dexamethasone (Sigma), 50 mg/mL ascorbate-2-phosphate (Sigma), 40 g/mL L-proline (Sigma), and […] sodium pyruvate (Sigma)) with 2% FBS and chondrogenically tuned TFP supplementation (1 ng/mL TGF-μ1, 5 ng/mL bFGF, 10 ng/mL PDGF; al from PeproTech). […] Following dissociation of the aggregates, cells were filtered through a 70 μm cell strainer and counted. […]

hyaluronidase
collagen I and collagen II production: Incapable of decreasing collagen I production and increasing collagen II production

C=C1[C@@H](C)[C@H]2[C@H](Cc3ccccc3)NC(=O)[C@]23[C@H](OC(C)=O)/C=C/[C@@](C)(O)C(=O)[C@@H](C)C/C=C/[C@H]3[C@@H]1O [cytochalasin D]
collagen I and collagen II production: Incapable of decreasing collagen I production and increasing collagen II production
